From publication PMC7848789 (SLAS discovery : advancing life sciences R & D, 2019)

What was measured:
[1] = system: HDAC class I and II activity in HEK293T cells; assay: HDAC-Glo I/II cellular assay in HEK293T cells; assay type: cell-based; conditions: qHTS; 1 hour; active = CRC class 1 and 2 and AUC>100
[2] = system: HDAC class I and II activity in HeLa cells; assay: HDAC-Glo I/II cellular assay in HeLa cells; assay type: cell-based; conditions: qHTS; 1 hour; active = CRC class 1 and 2 and AUC>100

Cc1ccc(C(=O)NCCCCCC(=O)Nc2ccccc2N)cc1 [RG2833]
Activity outcome in HEK293T cellular HDAC-Glo I/II assay [1]: relatively weak activity (below the activity cutoff)
Activity outcome in HeLa cellular HDAC-Glo I/II assay [2]: relatively weak activity (below the activity cutoff)
